Reference: PubChem BioAssay AID504444 (National Center for Advancing Translational Sciences (NCATS), 2011)
About 7,500 (2.1%) of roughly 360,000 compounds were called active. This list was built around the results that the source calls inconclusive (neither active nor inactive); the mix of calls is not that of the screen. Calls follow the shape of the dose curve; as a rule, active = well fitted inhibition curve with a large enough effect; inconclusive = small, poorly fitted or top-dose-only effect, or effect the other way; inactive = flat fitted curve, though single readings scatter. Potencies of inconclusive entries are doubtful fits and often do not repeat.
% is scaled to controls: 0 for no effect and ±100 for the full control effect; potency is read from the fitted curve at half-maximal effect.

Assay: Nrf2 qHTS screen for inhibitors; also: nearly all actives have a fitted effect of over 60% in size
Conditions: A549 ARE-Fluc reporter, luciferase luminescence, 18-24 h; activity change, negative = inhibition: at 46 µM (top of the series)
How it was run: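 Nrf2 function is reported as luminescence of an ARE-controlled luciferase in A549 cells. Compounds were tested at several concentrations, and a CellTiter-Fluor read on the same wells flagged cytotoxicity.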
In the case of `Cc1cccc(NC(=S)N/N=C(\c2ccccc2)C(C)C)c1`, the Potency is reported as inconclusive: 5.17 µM [activator, full curve, poor fit].
In the case of `CSc1nc(-c2ccc(Cl)cc2)nn1C(=O)c1ccccc1`, the Potency is reported as inconclusive: 16.4 µM [activator, partial curve].
In the case of `CCCOc1ccccc1C(=O)Nc1nc2c(s1)CCCC2`, the Potency is reported as inconclusive: 29.1 µM [activator, single point].
For `CN(Cc1ccccc1)C(=O)c1ccc2c(c1)N(Cc1ccc(Cl)cc1)C(=O)c1ccccc1S2=O` (stereo unspecified), the Potency was active: 20.6 µM.
In the case of `Cc1cccc(NC(=O)c2ccc(NS(=O)(=O)c3cccc4cccnc34)cc2)c1`, the Potency is reported as inconclusive: 23.1 µM [falling, partial curve, poor fit].
For `Cc1ccc(S(=O)(=O)N(CCC(=O)Nc2ccc(OC(F)(F)F)cc2)c2ccccc2)cc1`, the Potency was inconclusive: 29.1 µM [falling, single point].
For `Cc1nn(C)c(C)c1CN(C(=O)CCc1nnc(Cc2c[nH]c3ccccc23)o1)C(C)C`, the Potency was inconclusive: 6.51 µM [falling, single point].
In the case of `Cc1cc(C)n2nc(Nc3ccccc3)cc2n1`, the Potency is reported as inconclusive: 16.4 µM [activator, partial curve].
For `CCN(CC(=O)NCc1ccc(F)cc1)C(=O)c1ccc(C(=O)c2ccccc2)cc1`, the Potency was inconclusive: 29.1 µM [falling, single point].
For `CC(=O)C1=C(O)CC(c2ccccc2)CC1=NCCc1ccccc1` (stereo unspecified), the Potency was inconclusive: 32.6 µM [falling, single point].
With `CCCCS(=O)(=O)N1CCCC(C(=O)Nc2ccc3c(c2)CCC3)C1` (stereo unspecified) the Potency was inconclusive: 29.1 µM [activator, single point].
In the case of `O=[N+]([O-])c1ccccc1Nc1cccc(F)c1`, the Potency is reported as inconclusive: 25.9 µM [falling, single point].
In the case of `O=C(Nc1cc(=O)[nH]c2ncnn12)c1ccccc1`, the “activity change, negative = inhibition” value is reported as inactive: -10.6%.
For `Cc1cc(C)c(C#N)c(SCC(=O)c2cccs2)n1`, the “activity change, negative = inhibition” value was inactive: 12.7%.
In the case of `CN(C)c1ccc(-c2nc3ccccn3c2Nc2ccc3c(c2)OCCO3)cc1`, the Potency is reported as inconclusive: 0.731 µM [activator, full curve, poor fit].
For `COc1cccc(C2c3c(ncn(-c4cccc(C#N)c4)c3=N)Oc3ccc4ccccc4c32)c1` (stereo unspecified), the Potency was inconclusive: 1.16 µM [falling, full curve].
In the case of `Fc1ccc(CNc2ccc(N3CCN(Cc4ccccc4)CC3)cc2)cc1`, the Potency is reported as inconclusive: 7.31 µM [falling, single point].
For `COc1ccc(OC)c(NC(=O)c2cc3c(=O)n4cccc(C)c4nc3n2C)c1`, the “activity change, negative = inhibition” value was inactive: 15.6%.
In the case of `Cc1cc(SCCOc2ccccc2)nc(N)n1`, the Potency is reported as inconclusive: 29.1 µM [activator, single point].
For `CCN(CC)C1=N/C(=C\c2ccc(OC)cc2)C(=O)N1c1ccccc1`, the Potency was inconclusive: 3.26 µM [activator, full curve].
In the case of `Cc1ccc(S(=O)(=O)C2(C(=O)N3CCN(c4ccccc4F)CC3)CC2)cc1`, the Potency is reported as inconclusive: 13 µM [falling, partial curve, poor fit].
In the case of `Cc1ccc(CC(=O)NCc2nc(-c3cccc(C)c3)no2)cc1`, the “activity change, negative = inhibition” value is reported as inactive: -4.18%.
In the case of `O=S1(=O)N=C(Nc2ccc(N3CCOCC3)c(Cl)c2)c2ccccc21`, the Potency is reported as inconclusive: 0.651 µM [activator, partial curve, poor fit].
With `Cc1ccc(N(C)C(=O)c2noc3c2CCCCC3)cc1C` the Potency was inconclusive: 11.6 µM [activator, partial curve].
In the case of `O=C(CCc1nnc(Cc2c[nH]c3ccccc23)o1)NCC1CC12CCCCC2` (stereo unspecified), the Potency is reported as inconclusive: 29.1 µM [activator, single point].
In the case of `COc1ccc(CCN=C2SCC(=O)N2Cc2ccccc2)cc1OC`, the Potency is reported as inconclusive: 20.6 µM [falling, single point].
For `COC(=O)c1c(NC(=O)CCCOc2ccccc2C)sc2c1CCC2`, the “activity change, negative = inhibition” value was inactive: 7.25%.
For `CCOC(=O)Cc1csc(N/N=C/c2cccc([N+](=O)[O-])c2)n1`, the “activity change, negative = inhibition” value was inactive: -11.7%.
For `COc1ccc(CC(=O)Nc2ccc(-c3noc(COc4ccccc4C)n3)cc2)cc1`, the Potency was inconclusive: 5.8 µM [falling, partial curve].
In the case of `CC(=O)Nc1nc(C)c(-c2csc(Nc3cccc([N+](=O)[O-])c3)n2)s1`, the Potency is reported as inconclusive: 20.6 µM [falling, partial curve, poor fit].
In the case of `N#Cc1ccsc1NC(=O)CCN1CCN(C(c2ccccc2)c2ccccc2)CC1`, the Potency is reported as inconclusive: 16.4 µM [activator, partial curve].
For `Cc1ccc(NC(=O)c2nc[nH]c2C(=O)N[C@@H](CCCCNC(=O)OC(C)(C)C)C(=O)OC(C)(C)C)cc1`, the Potency was inconclusive: 23.1 µM [falling, single point].
In the case of `NC(=O)CSc1nnnn1-c1ccc(OC(F)(F)F)cc1`, the Potency is reported as inconclusive: 29.1 µM [falling, single point].
For `O=C1C2C3C=CC(CC3)C2C(=O)N1/N=C/c1c[nH]c2ccccc12` (stereo unspecified), the Potency was inconclusive: 8.2 µM [activator, partial curve].
With `O=[N+]([O-])c1ccc(S(=O)(=O)c2ccccc2)nc1` the Potency was inconclusive: 13 µM [falling, partial curve, poor fit].
For `CCOc1ccc2[nH]c(=O)c(CN(CCN3CCCC3)C(=S)Nc3ccccc3OCC)cc2c1`, the “activity change, negative = inhibition” value was inactive: 19.6%.
For `Cc1ccc(NC(=O)N2CCc3c([nH]c4ccccc34)C2c2ccccc2F)c(Cl)c1` (stereo unspecified), the Potency was inconclusive: 23.1 µM [activator, single point].
With `CCOc1c2ccc(C(=O)NCc3cc(C(F)(F)F)cc(C(F)(F)F)c3)cc2nn1CCOC` the Potency was inconclusive: 0.731 µM [falling, full curve].
With `Oc1[nH]c2ccccc2c1N=Nc1cccc(Cl)c1` the Potency was inconclusive: 20.6 µM [activator, partial curve].
In the case of `Cc1c(Cc2ccccc2)sc(NC(=O)C(C)(C)C)c1C(N)=O`, the Potency is reported as inconclusive: 29.1 µM [falling, single point].
In the case of `Cn1c(SCc2ccccn2)nc2c1c(=O)[nH]c(=O)n2C`, the Potency is reported as inconclusive: 25.9 µM [falling, single point].
